The campaign covered roughly 53,000 sequences. About 3,700 (7%) were called active.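 How the source made its calls: active means gene knockdowns whose robust z-score for IL-1 alpha signal is at least 2 or at most -2, so actives lie on both sides; inactive means the rest.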 This is one part of the list.
Assay: Components of the Cytosolic LPS Sensing Pathway: Gene Identification via Genome-wide siRNA Screen;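 further: robust z of the log signal after scaling to non-targeting control siRNA wells of the plate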
Settings: RAW264.7 macrophages, IL-1a HTRF, actives lie on both sides, screened at 100 nM (by protocol), cells primed 5 h with Pam3CSK4 first
Procedure, shortened: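 IL-1a HTRF of supernatants after 24 hour LipidA transfection of Pam3CSK4-primed (5 hours) RAW264.7 cells, 48h post-siRNA transfection (100 nM). Scores: percent of plate negative-control median, then log-based robust z-score.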

Q: Which z-score does the source give for CCAUGUUCAGAAGAGAAUATT against Igsf11 here?
A: inactive: -1.69

Q: For GGACGAGAGCACCUGAAAUTT against Efhb, which z-score is on record?
A: inactive: -0.00509

Q: For GCAAAUAGGGAGGUUCCUGTT against Ypel1, which z-score is on record?
A: inactive: 1.47

Q: For GGCUUAGUAUGUUGUAUUCTT against Fam241b, which z-score is on record?
A: inactive: 0.189

Q: With GGAUUAUGAGAAUCAAACCTT against Serpina10 as the sequence, how does the z-score read?
A: inactive: -0.399

Q: For GGAAAAUUGAUAGCAAGCUTT against Fbxw15, which z-score is on record?
A: inactive: 1.9

Q: Which z-score does the source give for CGGAAUGAACAUCAUGCUCTT against Pifo here?
A: inactive: -1.07

Q: Which z-score does the source give for GCGACCAGGACCGCGUCAATT against Sox3 here?
A: inactive: -1.07

Q: Which z-score does the source give for GGUCUUCUAUGGGAUCAUGTT against Entpd6 here?
A: inactive: -0.402

Q: Which z-score does the source give for GGAAGAGUCUAAUUAAAGGTT against Rab27b here?
A: inactive: 0.0195

Q: For GCUUGAUCAACAAGUGGAGTT against Nup62, which z-score is on record?
A: active: -2.13

Q: Which z-score does the source give for “GGAGAAAGAAACUCUCAGATT against 2610301B20Rik” here?
A: inactive: 0.0975

Q: With GGAUGGUGAUAAAAACAACTT against Tnnc2 as the sequence, how does the z-score read?
A: inactive: 0.173

Q: With GGAGAACUUUUUGAUAGAATT against Chek1 as the sequence, how does the z-score read?
A: inactive: -0.324

Q: Which z-score does the source give for GGAAACAUUAGAAUCUUGUTT against Lin52 here?
A: active: -2.23

Q: Which z-score does the source give for GGCAACCAUUAAAUGUUUATT against Trim59 here?
A: inactive: -0.54

Q: Which z-score does the source give for CCUUGUCAUUGCACUCCAATT against Tm6sf2 here?
A: inactive: -1.03

Q: For GCCAGAGACACGAUCCUCUTT against Ints12, which z-score is on record?
A: inactive: -1.82

Q: For GGCGCAUUCAUGUAUCUUCTT against Olfr908, which z-score is on record?
A: inactive: 0.00978

Q: Which z-score does the source give for CCUACCUGGUAGCAAGAAATT against Gphn here?
A: inactive: -1.45

Q: For GCCCAUUGUAAUAAAAGCCTT against Dnali1, which z-score is on record?
A: inactive: -0.582

Q: For CCCAGGUGAGGAUUGAUAATT against Rit2, which z-score is on record?
A: inactive: 0.667

Q: With GGAGAAAAAUCCUACCGACTT against Zmym5 as the sequence, how does the z-score read?
A: inactive: 0.56

Q: For GGCCAAGAAGAAGAAGAGATT against Ttf1, which z-score is on record?
A: inactive: 0.053

Q: With GCAUGUCAUCCACAAAUACTT against Dpm2 as the sequence, how does the z-score read?
A: inactive: 0.024

Q: For GGCGGAAACUCAAGUUCUUTT against Mcoln3, which z-score is on record?
A: inactive: -0.46

Q: For GCUCAUUUGCACAACAUGCTT against Bcl11b, which z-score is on record?
A: inactive: -0.512

Q: With GGCCAUAAACAACCAUUUATT against Ppp1r1b as the sequence, how does the z-score read?
A: inactive: 0.747

Q: With GCGGAUAUGAAGGACAUGCTT against Gskip as the sequence, how does the z-score read?
A: inactive: 0.0794

Q: With GGAUUUCUUAGCCAUGUUCTT against Lpxn as the sequence, how does the z-score read?
A: inactive: -0.28

Q: With GCAAUAAGUCUCGGGAACATT against Gpr158 as the sequence, how does the z-score read?
A: inactive: -1.2

Q: For “CCAAAAUUAAUGUGACAGATT against 2210408I21Rik”, which z-score is on record?
A: inactive: -0.619

Q: With GAUUCUCCAUUGCCCAAUGTT against Lce1i as the sequence, how does the z-score read?
A: inactive: 0.0132

Q: Which z-score does the source give for CGUUGUGUAUAGGUCUUUATT against M6pr here?
A: inactive: -0.622

Q: Which z-score does the source give for CCAAACAUAGAUGUUACUGTT against Ace2 here?
A: inactive: 1.35

Q: For GGUCGACAGAAAAAACAUUTT against Lrrc4c, which z-score is on record?
A: inactive: 1.78

Q: Which z-score does the source give for GGAAUCACGAAGGAGAUUCTT against Rexo5 here?
A: inactive: -1.25

Q: For GGCCAUGGUGGCGUGUUAUTT against Egln2, which z-score is on record?
A: inactive: -0.524

Q: For GCUUGGAUUGCCCUGAUUUTT against Olfr640, which z-score is on record?
A: inactive: -1.41

Q: Which z-score does the source give for GGGACUCGAAGCACUGUGUTT against Cinp here?
A: inactive: -0.159

Q: Which z-score does the source give for GCUGGCACAAUCUUUCAAATT against Cdh8 here?
A: inactive: 0.796

Q: For CCAUGUCAGUAUCUCAUGUTT against Pdc, which z-score is on record?
A: inactive: -0.456

Q: For GGCCAUUGGACACAGAAUCTT against Rpl35a, which z-score is on record?
A: active: 2.28

Q: With GCCAGAGACCCAAAUCAGATT against BC106179 as the sequence, how does the z-score read?
A: inactive: 0.328

Q: Which z-score does the source give for GCCGAUGUGUUAGUGGCUATT against Ddx28 here?
A: inactive: -0.609

Q: For GGCUAUUUAUUGCAUUCUCTT against Zfp689, which z-score is on record?
A: inactive: 0.388

Q: For GCUUUGGCUCAAAGCACGUTT against Mcm3, which z-score is on record?
A: inactive: 1.93

Q: Which z-score does the source give for GGGUCCUCUGCUCAUUUGGTT against Wdr17 here?
A: inactive: -0.334

Q: For CCAAAUAACUUUGUUGGCATT against Srsf12, which z-score is on record?
A: inactive: -0.937

Q: With CCCUAUAUAUCCACAUGUUTT against Mc3r as the sequence, how does the z-score read?
A: inactive: -0.818

Q: Which z-score does the source give for GCACCCACGAUUAUUGGAATT against Ppa1 here?
A: inactive: -0.0492

Q: With GCUUAUACCUCCAUCAUCGTT against Cops8 as the sequence, how does the z-score read?
A: inactive: -0.936

Q: For GGAAGGAAGAGAUGAAGAATT against Cetn1, which z-score is on record?
A: inactive: 1.09

Q: With GGCUAACGAAGAAUAUCAATT against Tusc3 as the sequence, how does the z-score read?
A: inactive: 0.496

Q: With GCACCACUAUUUUAGCAUATT against Rap1b as the sequence, how does the z-score read?
A: inactive: -0.221

Q: With GGAAUGAGAGAACUUGAUATT against Trmt5 as the sequence, how does the z-score read?
A: inactive: -0.521

Q: For GGAAUCCUUGAGACAGAUUTT against Impg1, which z-score is on record?
A: inactive: 0.0308

Q: For GAGUUUACCUAGUCUUUGATT against Qrich1, which z-score is on record?
A: inactive: 0.149

Q: Which z-score does the source give for CCACAUUUGGAACCUACGATT against Lrrcc1 here?
A: inactive: -0.831

Q: For “GGAUGUAGGUGACUGUCGATT against 4932411K12”, which z-score is on record?
A: inactive: -0.824

Q: With GCCACUAGCCUUUCAAAAGTT against Muc1 as the sequence, how does the z-score read?
A: inactive: 1.11

Q: With CCGCUUUCUUGCCAUUCACTT against Olfr576 as the sequence, how does the z-score read?
A: inactive: -0.266

Q: With CCUACAAACCAGAAGAGGUTT against Akr1c19 as the sequence, how does the z-score read?
A: inactive: 0.285

Q: Which z-score does the source give for GGCUUUUGUAACGAAAGGCTT against Wif1 here?
A: inactive: 0.273

Q: Which z-score does the source give for GGGAUUAUUCAGUCUAUGUTT against Lgals12 here?
A: inactive: 0.124

Q: With GGAGGAAGAGGUCAUCUUCTT against Olfr1378 as the sequence, how does the z-score read?
A: inactive: -0.541

Q: With GGUCCACACUUUCUGUCUUTT against Mkks as the sequence, how does the z-score read?
A: inactive: 1.03

Q: With GUGACCAGCUAUAAUCAGATT against Ins1 as the sequence, how does the z-score read?
A: inactive: -0.404

Q: For GGUUAAAGGGAAUUUUAUGTT against Zcchc14, which z-score is on record?
A: inactive: -0.395

Q: Which z-score does the source give for CGGGCGUGUGUUUGAAAAGTT against Cpox here?
A: inactive: 0.418

Q: For GGUGCUUUUACAUCUCACATT against Cd72, which z-score is on record?
A: inactive: -0.791

Q: With GGUAAUGAGACGCGGUUUATT against Ina as the sequence, how does the z-score read?
A: inactive: 0.202

Q: With GGAAAAGAUUUUUCUCUGATT against Usp26 as the sequence, how does the z-score read?
A: inactive: 0.466

Q: Which z-score does the source give for GCCGAUGAUACCAAACCGATT against Oser1 here?
A: inactive: 0.151

Q: With GGUUGUCAAGAGCUCAUACTT against Tefm as the sequence, how does the z-score read?
A: inactive: -1.31

Q: With GGUACCUGAAAAAAACAAATT against Tmem42 as the sequence, how does the z-score read?
A: inactive: -1.44

Q: With GCCCAUUCUAAACAAAUAATT against Ptcd1 as the sequence, how does the z-score read?
A: inactive: -0.825

Q: For GGGACUCUACCUUCAAUGUTT against Fkbp9, which z-score is on record?
A: inactive: 0.482

Q: Which z-score does the source give for CGGCUCAUAGGAAUGAUUUTT against Brf1 here?
A: inactive: 0.134

Q: Which z-score does the source give for GGACACAUACUACACUAAGTT against Upf1 here?
A: inactive: -0.811

Q: With GCUGAAUAGCCUCUAUCUATT against Rasgrp4 as the sequence, how does the z-score read?
A: inactive: 0.261

Q: Which z-score does the source give for GGGAUUUAAAAGGAAAUGUTT against Gbp7 here?
A: inactive: -1.05

Q: With GCAAAUCCCUCUGAAUGAUTT against Aox3 as the sequence, how does the z-score read?
A: inactive: -1.95

Q: With GGAUCCAAUACCAGCUAGUTT against Sh3bgrl3 as the sequence, how does the z-score read?
A: inactive: -0.158

Q: For CCUGGAAGGAUUAUUGCACTT against Klf9, which z-score is on record?
A: inactive: 1.9

Q: Which z-score does the source give for GGUCUUCUUCAAACAACUGTT against Hhip here?
A: inactive: -0.941

Q: Which z-score does the source give for GGAAAGUCUCCAAGUUUGUTT against Snx20 here?
A: inactive: 1.95

Q: For GGGUACAUUCUGGAAAUUUTT against Ids, which z-score is on record?
A: inactive: -1.08

Q: Which z-score does the source give for GGAAGAAGAGGAUGAGAUUTT against Clcn6 here?
A: inactive: -1.73

Q: With GGACCUGUACAAAAAGGGATT against Mag as the sequence, how does the z-score read?
A: inactive: -1.1

Q: With GCCAUAUCUGGUCACAUGUTT against Zfp738 as the sequence, how does the z-score read?
A: inactive: 0.464

Q: Which z-score does the source give for CCUGAUCCUCAGUUUGGUGTT against Prl here?
A: inactive: 0.129

Q: Which z-score does the source give for CGUAUAGGCACAAAGUAAATT against Gpr176 here?
A: inactive: -0.3

Q: With GGAGGAAUUUCUUAAGCUUTT against Ivns1abp as the sequence, how does the z-score read?
A: inactive: 0.988

Q: Which z-score does the source give for GGAAUCAGUUAAAGAGAUCTT against Bbs5 here?
A: inactive: -1.37

Q: For GGUUUACAGCACCAAGAUCTT against Itih3, which z-score is on record?
A: inactive: -0.625

Q: Which z-score does the source give for GGUGGACAAGCAAGUCUAGTT against Ube2o here?
A: inactive: 1.97

Q: With GGAGAUUUUGGAAAAAGCATT against Setd3 as the sequence, how does the z-score read?
A: inactive: 0.351

Q: Which z-score does the source give for GGAAAACUUGAGGCGGAUCTT against Enkd1 here?
A: active: 2.63

Q: For GGCAAAAGACACUGUCAAUTT against Naip3, which z-score is on record?
A: inactive: -0.897

Q: Which z-score does the source give for UGCCUGUAAACCAACAAGGTT against Prb1 here?
A: active: -2.04

Q: Which z-score does the source give for GGACCAUUUUCAAUACUCUTT against Rps6kl1 here?
A: inactive: -1.16

Q: Which z-score does the source give for GCUUCUAUUUCAUCUUUGUTT against Krtap4-7 here?
A: inactive: -0.0385

Q: With GCAUGUAUGGGCUGUUCAUTT against Olfr642 as the sequence, how does the z-score read?
A: inactive: 1.3

Q: Which z-score does the source give for GGAGAGUAUGUACUCACAUTT against Sh2b3 here?
A: inactive: 0.224

Q: Which z-score does the source give for CCUAAAAAGAGGAAAAGGGTT against Psg29 here?
A: inactive: -0.254

Q: With GGAAAGCCCUCCGAAGUUUTT against Wsb2 as the sequence, how does the z-score read?
A: inactive: -0.0582

Reference: PubChem BioAssay AID1508600 (Functional Genomics Laboratory (NCATS/FGL), 2020)
